In paper PMC10770960:
Read-outs that look alike come from different tables or passages of the source. These are yes or no findings as the source states them, for the method shown. Binding seen in cells or lysates may run through a third protein. A yes stands for co-enrichment or nearness to the bait. Other partners may have been found. Tags and fused reporters may be left off the sequences shown.

Sequences of proteins named here, by UniProt entry; tags and fusion partners are left off. Residues count along the entry.
UniProt Q02053: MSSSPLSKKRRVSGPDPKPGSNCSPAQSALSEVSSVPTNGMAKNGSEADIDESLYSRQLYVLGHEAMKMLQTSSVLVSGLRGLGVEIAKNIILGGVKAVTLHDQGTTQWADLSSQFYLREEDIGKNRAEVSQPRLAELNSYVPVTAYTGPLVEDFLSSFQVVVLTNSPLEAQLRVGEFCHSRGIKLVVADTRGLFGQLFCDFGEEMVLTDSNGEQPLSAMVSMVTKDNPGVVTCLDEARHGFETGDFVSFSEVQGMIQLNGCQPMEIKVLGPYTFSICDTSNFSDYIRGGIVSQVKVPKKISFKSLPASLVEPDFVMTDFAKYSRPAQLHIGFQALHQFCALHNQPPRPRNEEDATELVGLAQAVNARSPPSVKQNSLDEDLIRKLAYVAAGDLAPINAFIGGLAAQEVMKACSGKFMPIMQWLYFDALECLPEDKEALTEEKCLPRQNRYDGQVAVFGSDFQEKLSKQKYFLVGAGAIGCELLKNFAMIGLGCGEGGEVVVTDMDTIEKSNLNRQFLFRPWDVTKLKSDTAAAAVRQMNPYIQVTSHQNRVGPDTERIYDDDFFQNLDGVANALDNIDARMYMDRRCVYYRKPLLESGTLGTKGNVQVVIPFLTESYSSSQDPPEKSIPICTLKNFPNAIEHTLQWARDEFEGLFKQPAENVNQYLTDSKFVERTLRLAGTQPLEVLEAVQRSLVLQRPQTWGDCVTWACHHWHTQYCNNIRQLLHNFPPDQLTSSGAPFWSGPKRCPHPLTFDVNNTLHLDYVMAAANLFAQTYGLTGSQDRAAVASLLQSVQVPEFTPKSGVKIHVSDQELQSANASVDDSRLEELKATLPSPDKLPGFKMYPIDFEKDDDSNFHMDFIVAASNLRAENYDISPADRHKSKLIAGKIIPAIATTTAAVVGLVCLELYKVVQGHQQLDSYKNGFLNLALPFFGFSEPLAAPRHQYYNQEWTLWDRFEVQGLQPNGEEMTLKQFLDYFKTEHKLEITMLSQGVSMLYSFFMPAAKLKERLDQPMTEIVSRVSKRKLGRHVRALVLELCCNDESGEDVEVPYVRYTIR
UniProt Q64339, residues 1-155: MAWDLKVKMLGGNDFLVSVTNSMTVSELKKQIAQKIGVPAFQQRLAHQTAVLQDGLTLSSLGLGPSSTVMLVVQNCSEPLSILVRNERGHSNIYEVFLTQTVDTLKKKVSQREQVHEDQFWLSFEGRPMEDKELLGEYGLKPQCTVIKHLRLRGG

T1: GFP-Rab34 (UniProt Q64008)
T1 sequence: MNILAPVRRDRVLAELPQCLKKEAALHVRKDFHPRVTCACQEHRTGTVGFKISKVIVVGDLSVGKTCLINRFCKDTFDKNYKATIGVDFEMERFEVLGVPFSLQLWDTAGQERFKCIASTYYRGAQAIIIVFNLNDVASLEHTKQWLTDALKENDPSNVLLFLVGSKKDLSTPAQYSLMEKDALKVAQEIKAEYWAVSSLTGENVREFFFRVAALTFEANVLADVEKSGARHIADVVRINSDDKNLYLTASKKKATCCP

T2: c-Myc-BirA-Rab34 (UniProt Q64008)
T2 sequence: T1 sequence

B1: Fatty Acid Binding Protein 5 (FABP5) (protein, UniProt Q05816 1-135)
chain: MASLKDLEGKWRLMESHGFEEYMKELGVGLALRKMAAMAKPDCIITCDGNNITVKTESTVKTTVFSCNLGEKFDETTADGRKTETVCTFQDGALVQHQQWDGKESTITRKLKDGKMIVECVMNNATCTRVYEKVQ
B2: Ubiquitin C-Terminal Hydrolase L3 (UCHL3) (enzyme, UniProt Q9JKB1 1-230)
chain: MEGQRWLPLEANPEVTNQFLKQLGLHPNWQFVDVYGMEPELLSMVPRPVCAVLLLFPITEKYEVFRTEEEEKIKSQGQDVTSSVYFMKQTISNACGTIGLIHAIANNKDKMHFESGSTLKKFLEESVSMSPEERAKFLENYDAIRVTHETSAHEGQTEAPSIDEKVDLHFIALVHVDGHLYELDGRKPFPINHGKTSDETLLEDAIEVCKKFMERDPDELRFNAIALSAA

Experiments:
[1] = target: T1, GFP-Rab34; assay: affinity purification with mass spectrometry; 3T3-L1 cells transfected at D6 with GFP-Rab34 or mock vector, anti-GFP antibody or anti-IgG (control), protein G-Sepharose, LC-MS/MS
[2] = target: T2, c-Myc-BirA-Rab34; assay: proximity labelling; BioID: 3T3-L1 cells transfected at D6 with c-Myc-BirA-Rab34 or c-Myc-BirA (mock), 50 µmol/L biotin 24 h, streptavidin Dynabeads, MS/MS; only proteins absent in mock-transfected cells kept
[3] = target: T1, GFP-Rab34; assay: affinity purification with mass spectrometry; 3T3-L1 cells transfected at D6 with GFP-Rab34 or mock vector, anti-GFP antibody or anti-IgG (control), protein G-Sepharose, LC-MS/MS; remark: listed apart in the source
[4] = target: T2, c-Myc-BirA-Rab34; assay: proximity labelling; BioID: 3T3-L1 cells transfected at D6 with c-Myc-BirA-Rab34 or c-Myc-BirA (mock), 50 µmol/L biotin 24 h, streptavidin Dynabeads, MS/MS; only proteins absent in mock-transfected cells kept; remark: listed apart in the source

Molecule | binding [1] | binding [2] | binding [3] | binding [4]
E1 Ubiquitin-Activating Enzyme 1 (UBA1) (from UniProt Q02053 1-1058) | binds | binds |  | 
ISG15 Ubiquitin Like Modifier (ISG15) (from UniProt Q64339 1-155) | binds |  |  | 
B1 |  |  | binds | binds
B2 |  |  |  | binds
